Substitutions are numbered along the chain they refer to. For some of these results: A weaker result is weaker than the reference pair of the same experiment. Tags and fusion partners may be left off the protein sequences shown. For some of these results: Construct, isoform or probe ends are uncertain for at least one entry.
Key:
[1] = molecular target: T1, φW39 ΔN66 Ref (Bacteriophage phi W39) (UniProt P35926); assay: FP; details: purified recombinant protein, protein details: expressed from pET21A with NdeI start Met
T1 sequence: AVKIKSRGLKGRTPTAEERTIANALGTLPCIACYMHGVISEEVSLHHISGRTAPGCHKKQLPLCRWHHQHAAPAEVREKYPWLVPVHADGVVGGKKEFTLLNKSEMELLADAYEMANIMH

[2] = molecular target: T2, φW39 Ref (wild type) (Bacteriophage phi W39) (UniProt P35926); assay: enzyme reaction in vitro; details: purified recombinant protein, folded or branched DNA
T2 sequence: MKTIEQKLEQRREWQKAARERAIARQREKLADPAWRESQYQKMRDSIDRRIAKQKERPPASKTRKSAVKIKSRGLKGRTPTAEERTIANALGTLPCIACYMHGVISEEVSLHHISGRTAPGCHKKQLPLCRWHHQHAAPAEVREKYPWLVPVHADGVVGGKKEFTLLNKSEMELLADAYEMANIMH

[3] = molecular target: T3, φW39 ΔN59 Ref (Bacteriophage phi W39) (UniProt P35926); assay: FP; details: reduced affinity; purified recombinant protein; protein details: expressed from pET21A with NdeI start Met; label: 5'-6FAM on AJM25
T3 sequence: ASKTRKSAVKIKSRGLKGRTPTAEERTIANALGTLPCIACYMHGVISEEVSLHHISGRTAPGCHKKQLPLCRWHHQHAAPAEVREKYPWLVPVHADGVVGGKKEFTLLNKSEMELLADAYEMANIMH

[4] = molecular target: T3, φW39 ΔN59 Ref (Bacteriophage phi W39); assay: enzyme reaction in vitro; details: kinetics identical to WT; RecA E38K, ATP, Mg; purified recombinant protein; protein details: expressed from pET21A with NdeI start Met; folded or branched DNA
[5] = molecular target: T4, φW39 ΔN21 Ref (Bacteriophage phi W39) (UniProt P35926); assay: enzyme reaction in vitro; details: RecA E38K, ATP, Mg; about two-fold more at 30 min per p142; purified recombinant protein; protein details: expressed from pET21A with NdeI start Met; folded or branched DNA
T4 sequence: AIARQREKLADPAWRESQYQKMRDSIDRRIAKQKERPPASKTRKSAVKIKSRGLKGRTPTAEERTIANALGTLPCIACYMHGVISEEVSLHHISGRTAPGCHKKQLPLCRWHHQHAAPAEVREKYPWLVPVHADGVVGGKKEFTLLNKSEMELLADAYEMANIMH

[6] = molecular target: T5, P1 Ref (wild type) (Bacteriophage P1) (UniProt P35926); assay: enzyme reaction in vitro; details: 3 h; 100 nM Ref, 1.33 uM RecA E38K, ATP, 15 mM Mg, 37 C; unaffected by 10 mM DTT; purified recombinant protein; folded or branched DNA
T5 sequence: T2 sequence with L8I, R11C, E13K, A34V, S46T, I47L, T86R, T93A, E107N, S115A

[7] = molecular target: T6, φW39 ΔN47 Ref (Bacteriophage phi W39) (UniProt P35926); assay: enzyme reaction in vitro; details: RecA E38K, ATP, Mg; about two-fold more at 30 min per p142; purified recombinant protein; protein details: expressed from pET21A with NdeI start Met; folded or branched DNA
T6 sequence: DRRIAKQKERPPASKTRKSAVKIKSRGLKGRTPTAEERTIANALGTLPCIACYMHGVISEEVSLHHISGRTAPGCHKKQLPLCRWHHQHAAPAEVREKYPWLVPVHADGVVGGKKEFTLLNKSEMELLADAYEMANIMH

[8] = molecular target: T7, φW39 ΔN74 Ref (Bacteriophage phi W39) (UniProt P35926); assay: enzyme reaction in vitro; details: 3 h; reduced but significant nicking; near WT product at 50-fold higher protein (p143); purified recombinant protein; protein details: expressed from pET21A with NdeI start Met; folded or branched DNA
T7 sequence: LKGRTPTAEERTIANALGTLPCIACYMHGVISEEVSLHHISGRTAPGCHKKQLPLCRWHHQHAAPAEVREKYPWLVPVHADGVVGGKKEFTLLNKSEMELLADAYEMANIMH

[9] = molecular target: T1, φW39 ΔN66 Ref (Bacteriophage phi W39); assay: enzyme reaction in vitro; details: RecA E38K, ATP, Mg; purified recombinant protein; protein details: expressed from pET21A with NdeI start Met; folded or branched DNA
[10] = molecular target: T8, TMO hybrid Ref (Artificial Sequence) (UniProt P35926); assay: enzyme reaction in vitro; details: RecA E38K, ATP, Mg; about two-fold more at 30 min per p142; purified recombinant protein; folded or branched DNA
T8 sequence: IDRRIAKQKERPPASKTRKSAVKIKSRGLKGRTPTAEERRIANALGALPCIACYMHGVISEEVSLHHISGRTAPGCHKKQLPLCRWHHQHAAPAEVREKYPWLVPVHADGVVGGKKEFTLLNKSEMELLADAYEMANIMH

[11] = two DSBs with two separate oligos (500 or 1000 bases apart), pairing of oligos not stated

CAGAAGTAAGTTGGCCGCAGTGTTATCACTCATGGTTATGGCAGCACTGCATAATTCTCTTACTGTCATGC [AJM25 71mer ssDNA]
binding result ([1]; further reduced versus ΔN59, saturation not attainable, label: …, single-stranded DNA): binds more weakly

TGGTGCCTTCGTAGTGGCATTACGTATTTTACCCGTTTAATGGAAACTTCCTCATGAAAAAGTCTTTAGTCCTCAAAGCCTCTGTAGCCGTTGCTACCCTCGTTCCGATGCTGTCTTTCGCTGCTGAGGGTGACGATCCC [TMO6 targeting oligo, D-loop in M13mp18 dsDNA]
activity on this sequence [2, 11]: active

ATGCTACAGGCGTTGTAGTTTGTACTGGTGACGAAACTCAGTGTTACGGTACATGGGTTCCTATTGGGCTTGCTATCCCTGAAAATGAGGGTGGTGGCTCTGAGGGTGGCGGTTCTGAGGGTGGCGGTTCTGAGGGTGGC [TMO7 targeting oligo, D-loop in M13mp18 dsDNA]
activity on this sequence [2, 11]: active

CAGAAGTAAGTTGGCCGCAGTGTTATCACTCATGGTTATGGCAGCACTGCATAATTCTCTTACTGTCATGC (double strand) [AJM25/AJG52 71 bp dsDNA]
binding result [3]: binds more weakly | binding result ([1]; further reduced affinity, label: 5'-6FAM on AJM25): binds more weakly

TTTTGGTTTTTATCGTCGTCTGGTAAACGAGGGTTATGATAGTGTTGCTCTTACTATGCCTCGTAATTCCTTTTGGCGTTATGTATCTGCATTAGTTGAATGTGGTATTCCTAAATCTCAACTGATGAATCTTTCTACCTGTAATAATGT [rlb1 150mer D-loop in M13mp18 supercoiled dsDNA]
activity on this sequence [4]: 63 % linearized | activity on this sequence [5]: active | activity on this sequence [6]: 63 % linearized | activity on this sequence ([2]; 3 h, 100 nM Ref, 1.33 uM RecA E38K, ATP, 15 mM Mg, 37 C): 63 % linearized | activity on this sequence [7]: active | activity on this sequence [8]: 4 % linearized | activity on this sequence (fold reduction versus WT) [9]: 2 | activity on this sequence [10]: active
